In publication PMC5021521, “Coordinated recruitment of Spir actin nucleators and myosin V motors to Rab11 vesicle membranes” (eLife, 2016):
These are yes or no findings as the source states them, for the method shown. Binding seen in cells or lysates may run through a third protein. Binding calls can cover weak binding; strength is not graded here. Where a sequence is shown, tags or fusion partners need not be part of it.

Target: T1, GST-Rab11a-Q70L (UniProt P62490)
T1 sequence: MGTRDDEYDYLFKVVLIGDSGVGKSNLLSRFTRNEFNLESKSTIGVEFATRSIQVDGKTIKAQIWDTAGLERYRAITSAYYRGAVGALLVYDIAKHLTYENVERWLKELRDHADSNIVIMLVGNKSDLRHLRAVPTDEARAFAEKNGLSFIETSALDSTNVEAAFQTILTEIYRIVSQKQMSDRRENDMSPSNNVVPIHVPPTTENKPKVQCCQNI
Experiment: pull-down; 65 ug GST-Rab11a-Q70L on GSH-Sepharose 4B beads; lysates of HEK293 cells co-transfected with Myc-Spir-2-FL, mStrawberry-FMN2-FH2-FSI and eGFP-MyoVa-D-FL or eGFP-MyoVa-D-Q1753R; 2 hr at 4°C; immunoblot; only the target purified

Substance	binding
GFP-MyoVa-FL	binds
GFP-MyoVa-Q1753R	no binding
